# PubChem BioAssay AID1259284, Sanger Institute – 2017
# Test: 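siRNA screen across the kinome seeking partners for BYL719, cetuximab or trametinib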 (primary screen)
# System: SW48 human colorectal cancer cells
# Knock-down reagent: siRNA pool against human genes
# Challenge: anchor drug BYL719 at 1 µM, cetuximab at 5 µg/ml or trametinib at 10 nM, or DMSO vehicle alone
# Read-out: 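Cell viability relative to non-targeting pool wells, replicate mean, with robust z-scores and drug synergy scores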
# Scale: robust z-score, no drug: higher = more cells survive knock-down; viability, no drug: higher = more viable cells; synergy with BYL719 and synergy with trametinib and synergy with cetuximab: higher = stronger combined killing with drug
# Hit rule: 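Called essential when the robust z-score of viability without drug falls below -3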
# Meaning of the calls: active = essential without drug; inactive = no change without drug
# In all, the deposit lists 794 reagents; below is a random part of them. 16 of all reagents (2%) were called active. 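Calls concern knock-down without drug only; drug synergy was judged apart, with scores above 0.15 taken as synergy.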 No viability above 1 is reported: the scale is capped. Not stated in the record: the amount of reagent, the time to read-out.
gene,"robust z-score, no drug","viability, no drug (fraction of control)",synergy with BYL719,synergy with trametinib,synergy with cetuximab,outcome
TGFBR3 (GeneID 7049),0.426,1,-0.313,-0.253,-0.165,inactive
MAST1 (GeneID 22983),0.426,1,-0.119,-0.198,-0.165,inactive
BMX (GeneID 660),0.426,1,-0.249,-0.166,-0.144,inactive
MYLK (GeneID 4638),-1.25,0.856,-0.11,0.0452,0.0849,inactive
MASTL (GeneID 84930),-3.14,0.694,-0.121,-0.0526,-0.0249,active
FGFRL1 (GeneID 53834),-0.229,0.944,-0.306,-0.0842,-0.0316,inactive
CDK18 (GeneID 5129),-1,0.878,-0.283,-0.0108,-0.17,inactive
PRKG2 (GeneID 5593),0.426,1,-0.0274,-0.0439,0.0528,inactive
TNNI3K (GeneID 51086),0.426,1,-0.111,-0.124,-0.165,inactive
CDKL4 (GeneID 344387),0.426,1,-0.0582,0.197,0.0147,inactive
CILK1 (GeneID 22858),0.426,1,-0.164,-0.121,0.042,inactive
STK26 (GeneID 51765),0.426,1,-0.204,0.0449,-0.14,inactive
UCKL1 (GeneID 54963),0.426,1,-0.283,-0.152,-0.165,inactive
PIK3CA (GeneID 5290),-1.3,0.852,-0.226,-0.0544,-0.0418,inactive
STRADB (GeneID 55437),0.426,1,-0.205,-0.0837,-0.165,inactive
MAP3K13 (GeneID 9175),0.0496,0.968,-0.142,-0.11,-0.0745,inactive
VRK1 (GeneID 7443),0.426,1,-0.21,-0.0219,-0.0683,inactive
FCSK (GeneID 197258),0.426,1,-0.241,-0.0354,-0.165,inactive
PFKFB3 (GeneID 5209),-1.57,0.829,-0.033,0.0858,0.0546,inactive
AXIN2 (GeneID 8313),-0.137,0.952,-0.157,-0.157,-0.108,inactive
CDK19 (GeneID 23097),0.426,1,-0.0461,0.149,-0.0317,inactive
PIK3C2G (GeneID 5288),0.426,1,-0.104,0.235,0.0678,inactive

The list goes on, starting with the last 6 of the part before.
gene,"robust z-score, no drug","viability, no drug (fraction of control)",synergy with BYL719,synergy with trametinib,synergy with cetuximab,outcome
VRK1 (GeneID 7443),0.426,1,-0.21,-0.0219,-0.0683,inactive
FCSK (GeneID 197258),0.426,1,-0.241,-0.0354,-0.165,inactive
PFKFB3 (GeneID 5209),-1.57,0.829,-0.033,0.0858,0.0546,inactive
AXIN2 (GeneID 8313),-0.137,0.952,-0.157,-0.157,-0.108,inactive
CDK19 (GeneID 23097),0.426,1,-0.0461,0.149,-0.0317,inactive
PIK3C2G (GeneID 5288),0.426,1,-0.104,0.235,0.0678,inactive
PHKG2 (GeneID 5261),0.426,1,-0.149,-0.322,0.0117,inactive
GTF2H1 (GeneID 2965),0.426,1,-0.327,-0.14,-0.165,inactive
GALK1 (GeneID 2584),-3.22,0.687,-0.208,-0.0239,-0.234,active
PTPRU (GeneID 10076),0.426,1,-0.0998,0.0857,-0.165,inactive
ALDH18A1 (GeneID 5832),0.211,0.982,-0.286,-0.179,-0.0895,inactive
TEK (GeneID 7010),0.426,1,0.0267,-0.0391,0.0577,inactive
AK2 (GeneID 204),0.426,1,-0.161,-0.0491,-0.054,inactive
BCOR (GeneID 54880),0.426,1,-0.142,-0.0124,-0.0386,inactive
DBF4 (GeneID 10926),0.426,1,-0.234,-0.361,-0.0913,inactive
AKAP9 (GeneID 10142),-1.52,0.833,-0.151,-0.139,-0.12,inactive
ERN1 (GeneID 2081),-1.13,0.866,-0.0104,-0.0665,0.026,inactive
AK1 (GeneID 203),0.426,1,-0.149,-0.0595,-0.0243,inactive
MYH10 (GeneID 4628),0.426,1,-0.241,0.0167,-0.0745,inactive
PRKCA (GeneID 5578),0.426,1,-0.155,-0.00284,0.133,inactive
IKBKE (GeneID 9641),0.426,1,-0.202,-0.162,-0.105,inactive
VRK3 (GeneID 51231),0.426,1,-0.204,-0.374,-0.165,inactive
ACVRL1 (GeneID 94),0.426,1,-0.26,-0.0988,-0.00712,inactive
PIK3C2B (GeneID 5287),0.426,1,-0.185,-0.0852,-0.165,inactive
RIPK4 (GeneID 54101),0.426,1,-0.343,-0.159,-0.114,inactive
STK32C (GeneID 282974),0.426,1,-0.173,0.0246,-0.1,inactive
LATS1 (GeneID 9113),0.426,1,0.0175,0.0796,-0.105,inactive
EFNA4 (GeneID 1945),0.426,1,-0.19,-0.286,-0.165,inactive
CHEK1 (GeneID 1111),-2.33,0.764,-0.237,-0.0767,-0.0868,inactive
EPHA5 (GeneID 2044),0.426,1,-0.292,-0.244,-0.165,inactive
MAPK10 (GeneID 5602),0.426,1,-0.198,-0.157,-0.051,inactive
NRK (GeneID 203447),0.426,1,-0.217,-0.13,-0.165,inactive
MAPK8 (GeneID 5599),0.426,1,-0.265,-0.202,-0.165,inactive
DGKQ (GeneID 1609),0.426,1,-0.124,0.00943,-0.0628,inactive
